According to patent US20010049373A1, “Materials and methods for killing nematodes and nematode eggs” (priority 2000, published 2001):
At least one compound was matched to its structure with a doubt left.

Assays:
Format in all cases: in vivo
Caenorhabditis elegans [1] = assay: C. elegans L1 larvae dose-response, 5 day visual viability score (Examples 2 and 7); conditions: for 5 Day Visual Score V6: 0.3 μM; for 5 Day Visual Score V5: 0.9 μM; for 5 Day Visual Score V3: 7.8 μM; for 5 Day Visual Score V4: 2.6 μM
Description: Caenorhabditis elegans adults were grown on Nematode Growth Medium (NGM) until they produced eggs, then the adults were removed.
The eggs were allowed to hatch, and the L1 larvae collected. See The Neniatode Caenorhabditis elegans (1988) Cold Spring Harbor Laboratory Press. Using a Matrix Programmable Pipette, the L1s were distributed into 96-well tissue culture plates, 20 L1 in 50 μl NGM per well. Antibiotic/Antimyotic was added to each well, and 1% by weight E. coli strain HB101. The subject anthelmintic compounds were stored at 5 mM in 100% DMSO. 0.7 μl of compounds 1-31 were added to the left-most column of wells to yield a final concentration of 70 μM in 1.4% DMSO, with 1.4% DMSO only as the control. The compounds were then subjected to 5 more 3-fold dilutions from left to right to yield 6 column concentrations of 70 μM, 23.3 μM, 7.8 μM, 2.6 μM, 0.9 μM, and 0.3 μM. Plates were stored in air-tight Rubbermaid plastic boxes at 20° C. The nematodes had cleared all control wells by day 4, and nematode viability was scored by visual examination under a 100× dissecting microscope on day 5. A visual viability scoring system was used as follows:
If several classes of worms exist in a well, then all classes are scored. If adults are present, then the brood score is also recorded. Thus, “L1/L2” would mean a mixture of L1's and L2's are present in the well. “L4/#AD/B” would mean that a mixture of L4's and adults are resent in the well. The “#AD” would mean that there are 6 or less adults, and the “B” would mean that there were 100 progeny or less.
Column VI has a compound concentration of 70 μM with sequential 3-fold dilutions reported in columns V2, V3, V4, V5, and V6, respectively, such that the V6 concentration was 0.3 μM.
(§1) The nematicidal activity of anthelmintic Compositions 48-118 were determined in accordance with the procedure outlined in Example 2.

C. elegans = C. elegans nematode activity assay, 2-fold dilutions from 140 μM, visual evaluation at Day 4 (Example 3)
Caenorhabditis elegans [2] = assay: HTS runs (initial and follow-up): mOD, % Run and visual score (Table 3)
Description: as §1

[3] = viability scored day 5, Table 1
[4] = 23.3 μM, viability scored day 5, Table 1
[5] = 70 μM, viability scored day 5, Table 1

`CN(C)c1ccc(C2=NOC(c3ccc(-c4ccccc4)cc3)C2C(=O)NCCc2ccccc2F)cc1` (stereo not drawn) [AKC 104] was tested, and the “5 Day Visual Score V6” value (Caenorhabditis elegans [1]; [3]) was “L1/L2”, the “5 Day Visual Score V5” value (Caenorhabditis elegans [1]; [3]) was “L1/L2” and the “5 Day Visual Score V3” value (Caenorhabditis elegans [1]; [3]) was “L1/L2”. For the same molecule, the “5 Day Visual Score V2” value (Caenorhabditis elegans [1]; [4]) was “L1/L2” and the “5 Day Visual Score V1” value (Caenorhabditis elegans [1]; [5]) was “L1/L2”.
For `O=C(Nc1ccc(OC(F)(F)F)cc1)NC1CCC(c2nc(-c3ccccc3)no2)CC1` (stereo not drawn) [AKC 107], the “5 Day Visual Score V3” value (Caenorhabditis elegans [1]; [3]) was “L2/L3”.
For `O=C(Nc1ccc(Br)cc1)N1CCC(c2nc(-c3ccccc3)no2)CC1` [AKC 108], the “5 Day Visual Score V6” value (Caenorhabditis elegans [1]; [3]) was “L1/L3” and the “5 Day Visual Score V5” value (Caenorhabditis elegans [1]; [3]) was “L1/L2”.
`Cc1ccc(-c2noc(C3CCC(CNC(=O)Nc4ccc(OC(F)(F)F)cc4)CC3)n2)cc1C` (stereo not drawn) [AKC 112] was tested, and the “5 Day Visual Score V4” value (Caenorhabditis elegans [1]; [3]) was “L3/L4”, the “5 Day Visual Score V3” value (Caenorhabditis elegans [1]; [3]) was “L2/L3” and the “5 Day Visual Score V2” value (Caenorhabditis elegans [1]; [4]) was “L2/L3”. The “5 Day Visual Score V1” value (Caenorhabditis elegans [1]; [5]) was “L2/L3”.
`O=C(Nc1ccc(Br)cc1)NC1CCC(c2nc(-c3ccccc3)no2)CC1` (stereo not drawn) [AKC 114] was tested, and the “5 Day Visual Score V5” value (Caenorhabditis elegans [1]; [3]) was “L2/L3”.
In the case of `O=C(NCCCCCc1nc(-c2ccccc2)no1)Nc1ccc(OC(F)(F)F)cc1` [AKC 115], the “5 Day Visual Score V6” value (Caenorhabditis elegans [1]; [3]) is reported as “L2/L3”.
`O=C(NCC1CCN(C(=O)NCCC(c2ccccc2)c2ccccc2)CC1)c1cc(F)c(F)cc1F` [AKC 116] was tested, and the “visual evaluation of viability” value (C. elegans; 70 μM) was “L2/L3” and the “visual evaluation of viability” value (C. elegans; 140 μM) was “L1/L2”.
`O=C(NCC1CCN(C(=O)NCCC(c2ccccc2)c2ccccc2)CC1)c1ccc(F)cc1F` [AKC 117] was tested, and the “visual evaluation of viability” value (C. elegans; 70 μM) was “L2/L3” and the “visual evaluation of viability” value (C. elegans; 140 μM) was “L1/L2”.
For `O=C(NCC1CCN(C(=O)NCCC(c2ccccc2)c2ccccc2)CC1)c1cc(F)cc(F)c1` [AKC 118], the “visual evaluation of viability” value (C. elegans; 70 μM) was “L2/L3”.
For `CC(C)(C)C1=NOC(c2ccc(-c3ccccc3)cc2)C1C(=O)NCCc1ccccc1F` (stereo not drawn) [AKC 120], the “5 Day Visual Score V4” value (Caenorhabditis elegans [1]; [3]) was “L1/L2” and the “5 Day Visual Score V2” value (Caenorhabditis elegans [1]; [4]) was “L2/L3”.
In the case of `COc1ccc(C2=NOC(c3ccc(-c4ccccc4)cc3)C2C(=O)NCCc2ccccc2F)cc1` (stereo not drawn) [AKC 121], the “5 Day Visual Score V3” value (Caenorhabditis elegans [1]; [3]) is reported as “L1/L2”.
`CCOc1ccc(C2ON=C(c3ccc(N(C)C)cc3)C2C(=O)NCCc2ccc(F)cc2)cc1` (stereo not drawn) [AKC 123] was tested, and the “5 Day Visual Score V2” value (Caenorhabditis elegans [1]; [4]) was “L1/L2”.
For `CCOc1cccc(C2ON=C(c3ccccc3OCC)C2C(=O)NCCc2ccc(OC)c(OCC)c2)c1` (stereo not drawn) [AKC 124], the “5 Day Visual Score V3” value (Caenorhabditis elegans [1]; [3]) was “L2/L3”.
With `c1ccc2c(c1)CCN(c1cc(Oc3ccc4ccccc4c3)ncn1)C2` [AKC 342] the “5 Day Visual Score V2” value (Caenorhabditis elegans [1]; 23.3 μM (procedure of Example 2), day 5, Table 3) was “L1/L2” and the “5 Day Visual Score V1” value (Caenorhabditis elegans [1]; 70 μM (procedure of Example 2), day 5, Table 3) was “L1/L2”.
`CN(Cc1ccccc1)c1cc(Oc2cccc(F)c2)ncn1` [AKC 344] was tested, and the “Follow-up HTS Run Visual Score” value (Caenorhabditis elegans [2]) was “L3/L4”.
With `Fc1ccc(Oc2cc(N3CCc4ccccc4C3)ncn2)cc1` [AKC 345] the “Follow-up HTS Run Visual Score” value (Caenorhabditis elegans [2]) was “L1/L2”.
With `NS(=O)(=O)c1ccc(NC(=O)CN2CCCC(NC(=O)c3cc4ccccc4o3)C2)cc1` (stereo not drawn) [AKC 348] the “Follow-up HTS Run Visual Score” value (Caenorhabditis elegans [2]) was “L1/L2”.
For `CC(C)(C)OC(=O)N1CCN(c2cc(Oc3ccc(F)cc3)ncn2)CC1` [AKC 373], the “Initial HTS Run Visual Score” value (Caenorhabditis elegans [2]; Initial HTS Run) was “L1/L2”.
For `CC(C)(C)OC(=O)N1CCN(c2cc(Oc3ccccc3Cl)ncn2)CC1` [AKC 374], the “Follow-up HTS Run Visual Score” value (Caenorhabditis elegans [2]) was “L2/L3”.
In the case of `FC(F)(F)c1cccc(CNc2cc(Oc3ccc(-c4ccccc4)cc3)ncn2)c1` [AKC 382], the “Follow-up HTS Run Visual Score” value (Caenorhabditis elegans [2]) is reported as “L3/L4”.
In the case of `O=C(NCCc1ccccc1F)C1C(c2ccc(F)cc2)=NOC1c1ccc(-c2ccccc2)cc1` (stereo not drawn) [AKC 2153], the “5 Day Visual Score V3” value (Caenorhabditis elegans [1]; [3]) is reported as “L1/L2”.
